# Assay results: PubChem BioAssay (NCATS)
# “And” between values parts separate entries of the source, which are not always exact repeats. Equal values may be shown once. The shares of active, inactive and inconclusive entries below differ from those in the screen. Where the call is inconclusive, the potency comes from a doubtful curve fit. The source made the active and inactive calls. The call rests on the fitted dose curve; in most records, active means well fitted curve in the direction sought with a large enough effect; inconclusive means small, poorly fitted or top-dose-only effect, or another doubt; inactive means no such curve, though single readings can be large; an effect the other way counts as inactive or inconclusive.
# What was measured:
# [1] = Quantitative highthroughput screen to assess conditional lethalithy of NOMO1 cells grown in Human Plasma-Like Medium with dialyzed fetal bovine serum (HPLM+ds) (AID 1963878); conditions: NOMO1 AML cells in HPLM+ds, CellTiter-Glo viability, 48 h; viability: at 45.8 µM (top of the series); further: nearly all actives have a fitted effect of over 35% in size;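 on viability: 100% = DMSO wells and 0% = empty wells on each plate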
# Procedure, shortened: (§1)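 Each medium arm—HPLM with 10% dialyzed FBS, or RPMI1640 with 5 mM glucose and 10% untreated or dialyzed FBS—was screened against an 11-point, 3-fold compound titration for 48 h at 37 °C, with CellTiter-Glo luminescence as endpoint.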
# [2] = Quantitative highthroughput screen to assess conditional lethalithy of P12 Ichikawa cells grown in RPMI1640 with dialyzed fetal bovine serum (RPMI+ds) (AID 1963880); conditions: ATP luminescence, 48 h; Potency: P12-Ichikawa viability; series mostly up to 45.8 µM; further: nearly all actives have a fitted effect of over 35% in size;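 on viability: 100% = DMSO wells and 0% = empty wells on each plate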
# Procedure, shortened: as §1
# [3] = Quantitative highthroughput screen to assess conditional lethalithy of SEM cells grown in Human Plasma-Like Medium with dialyzed fetal bovine serum (HPLM+ds) (AID 1963882); conditions: SEM B-ALL cells in HPLM+ds, CellTiter-Glo viability, 48 h; series mostly up to 45.8 µM; further: nearly all actives have a fitted effect of over 35% in size
# Procedure, shortened: as §1
# [4] = Quantitative highthroughput screen to assess conditional lethalithy of SEM cells grown in RPMI1640 with unreated serum (RPMI+s) (AID 1963883); conditions: SEM B-ALL cells, CellTiter-Glo viability, 48 h; viability: at 45.8 µM (top of the series); further: nearly all actives have a fitted effect of over 35% in size;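 on viability: 100% = DMSO wells and 0% = empty wells without cells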
# Procedure, shortened: as §1
# [5] = Quantitative highthroughput screen to assess conditional lethalithy of SEM cells grown in RPMI1640 with dialyzed fetal bovine serum (RPMI+ds) (AID 1963884); conditions: SEM B-ALL cells, RPMI+dialyzed FBS, CellTiter-Glo viability, 48 h; viability: at 45.8 µM (top of the series); further: nearly all actives have a fitted effect of over 35% in size;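 on viability: 100% = DMSO control wells and 0% = empty wells without cells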
# Procedure, shortened: as §1
# [6] = Quantitative highthroughput screen to assess conditional lethalithy of P12 Ichikawa cells grown in RPMI1640 with untreated serum (RPMI+s) (AID 1963881); conditions: ATP luminescence, 48 h; Potency: viability; series mostly up to 45.8 µM; further: nearly all actives have a fitted effect of over 35% in size;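 on viability: 100% = DMSO wells and 0% = empty wells without cells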
# Procedure, shortened: as §1
# [7] = Quantitative highthroughput screen to assess conditional lethalithy of P12 Ichikawa cells grown in Human Plasma-Like Medium with dialyzed fetal bovine serum (HPLM+ds) (AID 1963879); conditions: ATP luminescence, 48 h; Potency: viability; series mostly up to 45.8 µM; further: nearly all actives have a fitted effect of over 35% in size
# Procedure, shortened: as §1
# [8] = Cellular viability qHTS for adrenocortical cancer (ACC) cell line SW-13 (AID 1963989); conditions: SW-13 ACC cells viability, CellTiter-Glo, 48 h; activity (max response): hits give low values; further: nearly all actives have a fitted effect of over 65% in size;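 on activity (max response): cells grown in serum-free medium with ITS supplement; on the % scale 0 is the no-effect control and ±100 the full control effect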
# Procedure, shortened: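 Viability was read as CellTiter-Glo luminescence after 48 h compound treatment (up to 46 uM final) of SW-13 cells grown serum-free; titration curves were fit with a four-parameter logistic model to give IC50 and efficacy.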
# Potency means the concentration at half of the fitted maximal effect.
smiles,measurement,setting,value
C[C@@H]1[C@H](C)CC[C@]2(C(=O)O)CC[C@]3(C)C(=CC[C@@H]4[C@@]5(C)C[C@@H](O)[C@H](O)[C@@](C)(CO)[C@H]5CC[C@]43C)[C@@H]12,Potency,[1],inactive
same,Potency,[2],inactive
same,Potency,[3],"inconclusive: 2.96 µM [rising, partial curve, poor fit]"
same,Potency,[4],"inconclusive: 37.2 µM [cytotoxic, single point]"
same,Potency,[5],"inconclusive: 5.9 µM [rising, partial curve, poor fit]"
O=C(c1ccc(C=Cc2n[nH]c3ccccc23)cc1)N1CCNCC1,Potency,[1],"inconclusive: 1.05 µM [cytotoxic, full curve, poor fit]"
same,Potency,[2],"inconclusive: 0.935 µM [cytotoxic, full curve]"
same,Potency,[3],"inconclusive: 0.209 µM [cytotoxic, full curve]"
same,Potency,[5],"inconclusive: 0.264 µM [cytotoxic, full curve]"
CN1[C@H]2CC[C@H]1CC(OC(=O)c1c[nH]c3ccccc13)C2 (stereo not given in full),Potency,[1],inactive
same,Potency,[6],inactive
same,Potency,[3],inactive
same,Potency,[4],inactive
O=c1ccc2ccc(O)c(O)c2o1,Potency,[1],inactive
same,Potency,[7],"inconclusive: 23.5 µM [cytotoxic, partial curve, poor fit]"
same,Potency,[3],"inconclusive: 29.6 µM [cytotoxic, single point]"
same,Potency,[4],"inconclusive: 29.6 µM [cytotoxic, single point]"
same,Potency,[5],"inconclusive: 26.4 µM [cytotoxic, single point]"
Cc1nc2n(c(=O)c1CCN1CCC(c3noc4cc(F)ccc34)CC1)CCCC2,Potency,[1],"inconclusive: 6.62 µM [cytotoxic, full curve, poor fit]"
same,Potency,[2],inactive
same,Potency,[4],inactive
same,Potency,[5],inactive
same,activity (max response),[8],inactive: -10.2%
O=c1c(-c2ccc(O)cc2)coc2cc(O)cc(O)c12,Potency,[1],"inconclusive: 13.2 µM [rising, partial curve, poor fit]"
same,Potency,[2],"inconclusive: 37.2 µM [cytotoxic, single point]"
same,Potency,[6],inactive
same,Potency,[3],"inconclusive: 29.6 µM [cytotoxic, single point]"
same,Potency,[4],"inconclusive: 20.9 µM [cytotoxic, partial curve, poor fit]"
same,Potency,[5],inactive
same,Potency,[8],"inconclusive: 10.3 µM [cytotoxic, partial curve, poor fit] and inconclusive: 22.4 µM [cytotoxic, partial curve]"
CNc1nc(-c2ccc3c(N)n[nH]c3c2)cc(N2C[C@@H](C(=O)NC3CCCCC3)CC[C@@H]2C)n1,Potency,[1],"inconclusive: 18.7 µM [cytotoxic, partial curve]"
same,Potency,[2],"inconclusive: 6.62 µM [cytotoxic, partial curve]"
same,Potency,[6],active: 16.6 µM
O=c1ccn([C@@H]2O[C@H](CO)[C@H](O)[C@H]2O)c(=O)[nH]1,Potency,[1],inactive
same,Potency,[7],inactive
same,Potency,[5],inactive
CC(=O)N[C@H]1[C@@H]([C@H](O)[C@H](O)CO)OC(C(=O)O)=C[C@@H]1N=C(N)N,Potency,[1],"inconclusive: 0.0017 µM [rising, full curve, poor fit]"
same,Potency,[2],inactive
same,Potency,[6],"inconclusive: 11.8 µM [cytotoxic, single point]"
same,Potency,[4],"inconclusive: 1.32 µM [rising, full curve, poor fit]"
same,Potency,[5],"inconclusive: 0.0023 µM [rising, full curve, poor fit]"
Cc1cc(Nc2cc(N3CCN(C)CC3)nc(C=Cc3ccccc3)n2)n[nH]1,Potency,[1],active: 3.03 µM
same,Potency,[2],active: 2.7 µM
C[C@@H]1O[C@@H](O[C@H]2CC[C@@]3(C)[C@H](CC[C@@H]4[C@H]3C[C@@H](O)[C@]3(C)[C@@H](C5=CC(=O)OC5)CC[C@]43O)C2)C[C@H](O)[C@@H]1O[C@H]1C[C@H](O)[C@H](O[C@H]2C[C@H](O)[C@@H](O)[C@@H](C)O2)[C@H](C)O1 (stereo in doubt),Potency,[1],active: 0.191 µM
same,Potency,[2],active: 0.191 µM
same,Potency,[5],active: 0.27 µM
COc1ccc2cc(-c3nc(-c4ccc(S(C)=O)cc4)[nH]c3-c3ccncc3)ccc2c1 (stereo not given),Potency,[1],inactive
same,Potency,[2],"inconclusive: 33.2 µM [cytotoxic, single point]"
same,Potency,[6],"inconclusive: 23.5 µM [cytotoxic, single point]"
same,Potency,[8],"inconclusive: 31.6 µM [cytotoxic, single point]"
COc1ccc2c(c1)CC[C@H]1[C@@H]2CC[C@]2(C)[C@@H](NCCCCCCN3C(=O)C=CC3=O)CC[C@H]12,Potency,[1],inactive
same,Potency,[7],inactive
same,Potency,[6],inactive
same,Potency,[3],inactive
same,Potency,[4],inactive

# Rewritten tab-delimited: part of the list above
smiles	measurement	setting	value
O=c1c(-c2ccc(O)cc2)coc2cc(O)cc(O)c12	Potency	[6]	inactive
same	Potency	[3]	inconclusive: 29.6 µM [cytotoxic, single point]
COc1ccc2cc(-c3nc(-c4ccc(S(C)=O)cc4)[nH]c3-c3ccncc3)ccc2c1 (stereo not given)	Potency	[1]	inactive
